This passage reports survivor count and T/C results from PubChem BioAssay AID248 (DTP/NCI, 2004).

The list shows only some results of the screen, not a fair sample: it gathers tests that were run many times, whatever their T/C, doses with no T/C, and many T/C values between a quarter and a half above the control. Further doses and runs are listed elsewhere. T/C: endpoint of the treated group in % of that of the vehicle group. Some entries give survivors of the animals treated and no T/C: the source files T/C as zero there, which appears to mark a toxic dose or a test without result, not a measured value. Some survivor counts are full or nearly so, which does not show that the dose was tolerated: the source hardly ever lists a survival T/C far under the control, and the zero likely stands for such cases as well. Counts of survivors are from the toxicity check (mostly the fifth day) where no day follows; animals may have died later. Schedule codes are those of the source, read here as Q, the interval in days (D) or hours (H), X, the number of doses. Some schedule codes hold Z or #, which are not explained here. Where survival is the endpoint, this PubChem deposit counts one and a half times the control or more as active, and values a quarter to a half above the control carry no call in these data; other NCI protocols may use other cut-offs. Some entries were tested several times; their values stand side by side, smallest first. Some T/C values are followed by the survivors on the day toxicity was checked, most often the fifth; where none is given, no animal had died by that day.

The test system of the experiment is L1210 leukemia ip in BDF1 mice, survival T/C. Kind of experiment: NCI In Vivo Anticancer Drug Screen. Data for tumor model L1210 Leukemia (intraperitoneal) in B6D2F1 (BDF1) mice. The conditions noted are these: higher T/C = longer survival.
The mark [1] stands for this setting: T/C endpoint: mean survival time, dose: 200.0 mg/kg/injection, schedule: Q01DX Z (ip), vehicle: saline.
[2] abbreviates: T/C endpoint: mean survival time, dose: 15.0 mg/kg/injection, schedule: Q01DX Z (ip), vehicle: saline.
[3] abbreviates: T/C endpoint: mean survival time, dose: 400.0 mg/kg/injection, schedule: Q04DX003 (ip), vehicle: Klucel (hydroxypropylcellulose) (HPC).
Where [4] appears, read: T/C endpoint: mean survival time, dose: 400.0 mg/kg/injection, schedule: Q04DX003 (ip), vehicle: saline with Tween-80.
Where [5] appears, read: T/C endpoint: mean survival time, dose: 200.0 mg/kg/injection, schedule: Q01DX001 (ip), vehicle: saline.
Where [6] appears, read: T/C endpoint: mean survival time, dose: 400.0 mg/kg/injection, schedule: Q01DX001 (ip), vehicle: saline.
[7] abbreviates: T/C endpoint: mean survival time, dose: 100.0 mg/kg/injection, schedule: Q01DX009 (ip), vehicle: Klucel (hydroxypropylcellulose) (HPC).
Where [8] appears, read: T/C endpoint: mean survival time, dose: 200.0 mg/kg/injection, schedule: Q01DX009 (ip), vehicle: Klucel (hydroxypropylcellulose) (HPC).
[9] abbreviates: T/C endpoint: mean survival time, dose: 400.0 mg/kg/injection, schedule: Q01DX009 (ip), vehicle: Klucel (hydroxypropylcellulose) (HPC).
The mark [10] stands for this setting: T/C endpoint: mean survival time, dose: 200.0 mg/kg/injection, schedule: Q04DX003 (ip), vehicle: saline with Tween-80.

Turning to `Cc1ccc(C)c2c1[nH]c1c(C)c3ccncc3c(C)c12`, the survivor count reads like this: under setting [1], 1 of 6; (T/C endpoint: mean survival time, dose: 400.0 mg/kg/injection, schedule: Q01DX Z (ip), vehicle: saline) 0 of 6.
Take `COc1cc(C(=O)Nc2ccc(C3=NCCN3)cc2)cc(C(=O)Nc2ccc(C3=NCCN3)cc2)c1`: under setting [2], the T/C was 132 % of control.
In the case of `CNC(Cc1ccc(OCc2ccccc2)cc1)C(=O)NC(CC(C)C)C(=O)OC` (stereo not given), the survivor count is given as 3 of 6 (T/C endpoint: mean survival time, dose: 200.0 mg/kg/injection, schedule: Q01DX009 (ip), vehicle: saline) and 3 of 6 (T/C endpoint: mean survival time, dose: 400.0 mg/kg/injection, schedule: Q04DX003 (ip), vehicle: saline).
Turning to `c1ccc2ncccc2c1`, the survivor count under setting [3] is given as 1 of 6.
For the compound `O=P(CCO)(c1ccccc1)c1ccccc1`, the survivor count under setting [4] is listed as 3 of 6.
Consider `O=[N+]([O-])c1ccc2c(c1)c(-c1cccc(-c3ccccc3)c1)nc1ccccc12`, for which, under setting [4], the survivor count was 5 of 6.
In the case of `N=c1ccn(CC(Cl)COc2ccccc2)cc1` (stereo not given), the survivor count under setting [5] is 0 of 4 and the survivor count under setting [6] is 0 of 4.
Take `O=C1C(=O)c2ccccc2C=C1Br`: the survivor count under setting [3] was 4 of 6.
`CCCCCCCCCCCC(=O)N(C)CC(=O)O`: the survivor count is, setting by setting: under setting [5], 3 of 6; under setting [6], 0 of 6.
Turning to `NC=O`, the survivor count (T/C endpoint: mean survival time, dose: 500.0 mg/kg/injection, schedule: Q01DX009 (ip), vehicle: saline) was 6 of 6.
For `COc1cc2cc3c4cc(OC)c(OC)cc4cc[n+]3c(/C=C/c3cccc(O)c3)c2cc1OC`, the T/C is, setting by setting: (T/C endpoint: mean survival time, dose: 100.0 mg/kg/injection, schedule: Q04DX002 (ip), vehicle: carboxymethylcellulose (CMC)) 107, 115, 118, 126 % of control; (T/C endpoint: mean survival time, dose: 200.0 mg/kg/injection, schedule: Q04DX002 (ip), vehicle: carboxymethylcellulose (CMC)) 93, 107, 111, 133 % of control.
As to `COC1=C(OC)C(=O)c2ccccc2C1=O`, the survivor count by setting is: under setting [7], 1 of 6; under setting [8], 0 of 6; under setting [9], 0 of 6.
As for `CN=C(c1ccc(NC(=O)c2cccc(C(=O)Nc3ccc(C(=NC)N(C)C4CCCCC4)cc3)c2)cc1)N(C)C1CCCCC1`, the survivor count runs as follows: under setting [2], 0 of 6; (T/C endpoint: mean survival time, dose: 30.0 mg/kg/injection, schedule: Q01DX Z (ip), vehicle: saline) 0 of 6; (T/C endpoint: mean survival time, dose: 60.0 mg/kg/injection, schedule: Q01DX Z (ip), vehicle: saline) 0 of 6; (T/C endpoint: mean survival time, dose: 120.0 mg/kg/injection, schedule: Q01DX Z (ip), vehicle: saline) 0 of 6.
For `O=[N+]([O-])c1ccc2c(c1)-c1ccccc1C2Br` (stereo not given), the survivor count (T/C endpoint: mean survival time, dose: 200.0 mg/kg/injection, schedule: Q01DX005 (ip), vehicle: Klucel (hydroxypropylcellulose) (HPC)) is 2 of 3.
`Clc1nc(SC2=NCCN2)c2[nH]cnc2n1`: the survivor count is recorded as 0 of 6 (T/C endpoint: mean survival time, dose: 80.0 mg/kg/injection, schedule: Q01DX009 (ip), vehicle: saline with Tween-80); 0 of 6 (T/C endpoint: mean survival time, dose: 100.0 mg/kg/injection, schedule: Q04DX003 (ip), vehicle: saline with Tween-80); 0 of 6 under setting [10]; 0 of 6 under setting [4].
For the compound `S=C1SCN(c2ccccc2)CN1c1ccccc1`, the survivor count under setting [4] is 6 of 6.
For the compound `CS(=O)C(Cl)C(O)c1ccccc1` (stereo not given), the T/C (T/C endpoint: mean survival time, dose: 200.0 mg/kg/injection, schedule: Q03DX002 (ip), vehicle: saline with Tween-80) is 128 % of control.
As for `CCc1cc(C)cc(OC(=O)Nc2cccc(Cl)c2)c1`, the survivor count (T/C endpoint: mean survival time, dose: 400.0 mg/kg/injection, schedule: Q01DX009 (ip), vehicle: saline with Tween-80) is 6 of 6.
For `COCCOC`, the T/C under setting [1] was 133 and 142 % of control; the T/C (T/C endpoint: mean survival time, dose: 300.0 mg/kg/injection, schedule: Q01DX Z (ip), vehicle: saline) is 125 % of control; the T/C (T/C endpoint: mean survival time, dose: 500.0 mg/kg/injection, schedule: Q01DX Z (ip), vehicle: saline) was 139 % of control [5 of 6 alive]; the T/C (T/C endpoint: mean survival time, dose: 1000.0 mg/kg/injection, schedule: Q01DX Z (ip), vehicle: saline) was 126, 132 [5 of 6 alive], 133 % of control. Moreover, the survivor count was 5 of 6 (T/C endpoint: mean survival time, dose: 1500.0 mg/kg/injection, schedule: Q01DX Z (ip), vehicle: saline) and 6 of 6 (T/C endpoint: mean survival time, dose: 2000.0 mg/kg/injection, schedule: Q01DX Z (ip), vehicle: saline).
Regarding `S=C=NCc1ccccc1`, the survivor count (T/C endpoint: mean survival time, dose: 300.0 mg/kg/injection, schedule: Q01DX001 (ip), vehicle: saline) is 0 of 6.
Take `CN(C)c1ccc2cc3ccc(N(C)C)cc3nc2c1`: the survivor count by setting is: (T/C endpoint: mean survival time, dose: 100.0 mg/kg/injection, schedule: Q04DX002 (ip), vehicle: saline with Tween-80) 3 of 3; (T/C endpoint: mean survival time, dose: 200.0 mg/kg/injection, schedule: Q04DX002 (ip), vehicle: saline with Tween-80) 1 of 3; (T/C endpoint: mean survival time, dose: 400.0 mg/kg/injection, schedule: Q04DX002 (ip), vehicle: saline with Tween-80) 0 of 3.
For `O=C1C2C(C(=O)N1c1cccc3ccccc13)C1(Cl)C(Cl)=C(Cl)C2(Cl)C1(Cl)Cl` (stereo not given), the survivor count under setting [7] is reported as 3 of 6, the survivor count under setting [8] was 1 of 6 and the survivor count under setting [9] is on record as 0 of 6.
In the case of `CC12CCC3C(CCC4C(C)(C(=O)O)CCCC34C)(CC1=O)C2` (stereo not given), the survivor count (T/C endpoint: mean survival time, dose: 400.0 mg/kg/injection, schedule: Q01DX001 (ip), vehicle: saline with Tween-80) is 3 of 3.
Take `COc1ccc(/C=N/NC(=O)C[n+]2ccccc2)c(OC)c1`: the survivor count is 2 of 6 under setting [10] and 0 of 6 under setting [4].
On to `NC(=O)c1ccccc1NC(=O)Nc1cccc(F)c1`, for which the survivor count (T/C endpoint: mean survival time, dose: 100.0 mg/kg/injection, schedule: Q01DX009 (ip), vehicle: saline with Tween-80) was 3 of 6.
`COc1cc([N+](=O)[O-])c(C(=O)O)c(C(=O)O)c1OC`: the survivor count by setting is: (T/C endpoint: mean survival time, dose: 100.0 mg/kg/injection, schedule: Q04DX003 (ip), vehicle: Klucel (hydroxypropylcellulose) (HPC)) 6 of 6; (T/C endpoint: mean survival time, dose: 200.0 mg/kg/injection, schedule: Q04DX003 (ip), vehicle: Klucel (hydroxypropylcellulose) (HPC)) 0 of 6; under setting [3], 0 of 6.
Turning to `CC[C@H]1CN2CCc3cc(OC)c(OC)cc3[C@@H]2C[C@@H]1C[C@H]1NCCc2c1[nH]c1ccc(O)cc21`, the T/C was 127 % of control (T/C endpoint: mean survival time, dose: 1.0 mg/kg/injection, schedule: Q01DX006 (ip), vehicle: saline); 128 % of control (T/C endpoint: mean survival time, dose: 2.0 mg/kg/injection, schedule: Q01DX006 (ip), vehicle: saline); 136 % of control (T/C endpoint: mean survival time, dose: 8.0 mg/kg/injection, schedule: Q04DX003 (ip), vehicle: saline); 131 % of control (T/C endpoint: mean survival time, dose: 2000.0 micrograms/kg/injection, schedule: Q01DX009 (ip), vehicle: saline); 126 % of control [7 of 8 alive] (T/C endpoint: median survival time, dose: 4.0 mg/kg/injection, schedule: Q04DX003 (ip), vehicle: saline + alcohol). Also, the survivor count is 7 of 9 (T/C endpoint: mean survival time, dose: 4.0 mg/kg/injection, schedule: Q01DX006 (ip), vehicle: saline); 0 of 10 (T/C endpoint: mean survival time, dose: 8.0 mg/kg/injection, schedule: Q01DX005 (ip), vehicle: saline); 0 of 10 (T/C endpoint: mean survival time, dose: 8.0 mg/kg/injection, schedule: Q01DX006 (ip), vehicle: saline); 0 of 10 (T/C endpoint: mean survival time, dose: 16.0 mg/kg/injection, schedule: Q01DX005 (ip), vehicle: saline); 0 of 10 (T/C endpoint: mean survival time, dose: 16.0 mg/kg/injection, schedule: Q04DX003 (ip), vehicle: saline); 0 of 10 (T/C endpoint: mean survival time, dose: 32.0 mg/kg/injection, schedule: Q04DX003 (ip), vehicle: saline). For the same compound, the survivor count (T/C endpoint: mean survival time, dose: 4000.0 micrograms/kg/injection, schedule: Q01DX009 (ip), vehicle: saline) is recorded as 5 of 10; the survivor count (T/C endpoint: median survival time, dose: 8.0 mg/kg/injection, schedule: Q04DX003 (ip), vehicle: saline + alcohol) was 4 of 8; the survivor count (T/C endpoint: median survival time, dose: 16.0 mg/kg/injection, schedule: Q04DX003 (ip), vehicle: saline + alcohol) was 2 of 8.
